Results as given in paper PMC12040169 (PLOS Biology, 2025).
Some of the results follow.

system: T1, CTL2-GFP (C. trachomatis L2/434/Bu, GFP-expressing); set-up: species or system HeLa; Intracellular C. trachomatis growth in HeLa cells, bulk GFP fluorescence relative to DMSO; details: bulk GFP, single well; 28.5 h, 10 µM; inhibitor
T1 construct: L2/434/Bu, GFP-expressing

| Structure (SMILES) | % of control remaining |
| --- | --- |
| Cc1cc(C)c(NC(N)=O)c(C)c1 [CBK086399] | 144.659% |
| O=C(NCc1c(Cl)cccc1Cl)N1CCCCC1CO (centres unmarked) [CBK156184] | 108.955% |
| Cc1ccc(C(=O)O)cc1NS(=O)(=O)c1ccc2c(c1)OCCO2 [CBK297497] | 135.493% |
| O=C(C1CCCC1)N1CC(n2nc(-c3cccs3)ccc2=O)C1 [CBK283345] | 113.092% |
| Cc1nn2c(=O)[nH]ncc2c1-c1ccccc1C(=O)N(C(C)C)C(C)C [CBK307043] | 92.7739% |
| O=C(c1ccc(Oc2ccccc2)cc1)N1CCC2(CCN(Cc3ccccc3)C2)C1 (centres unmarked) [CBK136833] | 137.945% |
| O=C(Cc1c[nH]c(=O)[nH]c1=O)Nc1ncc(Cc2ccc(F)cc2)s1 [CBK285674] | 118.93% |
| CCC(=O)N1CCN(c2nc3ccc(OC)cc3s2)CC1 [CBK287721] | 104.097% |
| CCCn1cc(CN2CCC(O)(c3ccc(C)cc3)CC2)cn1 [CBK282737] | 118.807% |
| O=C(O)c1ccc(NS(=O)(=O)c2cc(C(=O)O)ccc2Br)cc1 [CBK113164] | 120.104% |
| CC(=O)c1ccc(NC(=O)CSc2nnc(-c3ccc4ccccc4n3)s2)cc1 [CBK269205] | 109.255% |
| CCOC(=O)c1cnc2ccc(C(CCOCc3ccccc3)OCc3ccccc3)cc2c1O (centres unmarked) [CBK018405] | 128.599% |
| Cc1ccc2c(c1)C1(CC(=O)N(CC(=O)O)C1=O)C(=O)N2C (centres unmarked) [CBK076104] | 111.656% |
| CCC(C)(C)c1ccc(S(=O)(=O)N2CCCN(Cc3cccc4c3OCO4)CC2)cc1 [CBK062872] | 104.401% |
| Cn1nc(C(=O)N2Cc3cnn(Cc4ccc(F)cc4)c3C2)ccc1=O [CBK306855] | 151.641% |
| O=C(CSc1nnc2ccc(-c3ccccc3)nn12)NCc1ccccc1 [CBK287677] | 81.6965% |
| C=CCNC(=O)C1CN(C)CC12CCc1ccccc1C(=O)N2 (centres unmarked) [CBK282401] | 158.323% |
| COc1ccc2[nH]cc(CC(=O)N3CCCC4(CCN(C(=O)c5cc(F)c(F)cc5F)C4)C3)c2c1 (centres unmarked) [CBK131562] | 136.77% |
| CCc1[nH]c2ccc(C(=O)NC3CCCOC3)cc2c1C (centres unmarked) [CBK283247] | 127.44% |
| COc1ccc(C(Nc2ccnc(OC)c2C#N)[C@H]2C[C@@H](O)C2)cn1 (some centres unmarked) [CBK306980] | 117.286% |
| O=C(O)CC(NCc1ccccc1)C(=O)Nc1cccc(F)c1 (centres unmarked) [CBK266956] | 139.482% |
| CN1C(=O)CC2(C1=O)C(=O)N(CC(=O)c1ccccc1)c1ccc(F)cc12 (centres unmarked) [CBK075420] | 157.015% |
| CC(C)Cc1ccc(C(C)c2nc3ccccc3[nH]2)cc1 (centres unmarked) [CBK261484] | 104.057% |
| O=C(Nc1cccc(Cl)c1)C1CCC(C(=O)Nc2cccc(Cl)c2)CC1 (centres unmarked) [CBK269136] | 131.931% |
| O=C(c1ccccc1NS(=O)(=O)c1cccc2cccnc12)N1CCOCC1 [CBK043338] | 93.4861% |

Single values from the entries so far:
Value for O=C(NCc1c(Cl)cccc1Cl)N1CCCCC1CO (centres unmarked) [CBK156184] under % of control remaining: 108.955%
Value for CC(C)Cc1ccc(C(C)c2nc3ccccc3[nH]2)cc1 (centres unmarked) [CBK261484] under % of control remaining: 104.057%

(more compounds)

| Structure (SMILES) | % of control remaining |
| --- | --- |
| O=C(CN1CCCC2(CCN(C(=O)c3cc(F)c(F)cc3F)C2)C1)Nc1ccc(F)c(Cl)c1 (centres unmarked) [CBK132008] | 113.813% |
| CCOC(=O)CC1C(=O)NCCN1Cc1cccc(C)n1 (centres unmarked) [CBK269965] | 97.1216% |
| CCN(C(C)COC)S(=O)(=O)c1ccc(-n2ncc(Cl)c(Cl)c2=O)cc1 (centres unmarked) [CBK305662] | 28.501% |
| CN(C)c1ccc(C(=O)N2CCC(c3cc4ncccc4[nH]3)CC2)cc1 [CBK284459] | 127.944% |
| O=C1c2ccccc2NC(c2cccc(O)c2)N1O (centres unmarked) [CBK288426] | 107.405% |
| S=C1NCN(Cc2ccccc2)CN1c1ccccc1 [CBK263536] | 100% |
| O=C(Oc1c(Cl)cc(Cl)c2cccnc12)c1cc(S(=O)(=O)N2CCCCC2)ccc1Cl [CBK264518] | 100.961% |
| COCCNC(=O)NCCCn1c(-c2ccncc2)nc2cccnc21 [CBK288581] | 134.482% |
| CCn1nc2c(c1C(=O)Nc1cccc(CCc3ccncc3)c1)CCCC2 [CBK285561] | 91.4121% |
| Cc1cc(C)n(CC(O)CN(Cc2ccco2)CC2CC=CCC2)n1 (centres unmarked) [CBK283159] | 123.502% |
| Cc1ccc(S(=O)(=O)N(C)CC(=O)O/N=C(\N)c2cccnc2)cc1 [CBK266717] | 116.91% |
| CCOCCC(=O)NC1CCCc2nc(N3CCC(CO)CC3)ncc21 (centres unmarked) [CBK306624] | 95.0336% |
| CCOc1ccc(OCC)c(S(=O)(=O)n2nc(C)cc2C)c1 [CBK264024] | 100% |
| Cc1cc(NC(=O)c2ccco2)nc2c1c(=O)oc1ccccc12 [CBK291124] | 116.003% |
| N#CCn1c(-c2nonc2N)nc2ccccc21 [CBK050974] | 118.689% |
| COC(=O)c1sccc1S(=O)(=O)n1ccc2ccc(Br)cc21 [CBK003528] | 115.531% |
| Cc1ccc(OC(C)C(=O)NCCCN2CCOCC2)cc1C (centres unmarked) [CBK268109] | 132.497% |
| O=C(O)[C@H]1CN(C(=O)CCc2ccco2)C[C@@H]1c1ccc(F)cc1 [CBK283722] | 124.359% |
| Fc1ccc(OCCNC2CCc3[nH]c4ccccc4c3C2)cc1 (centres unmarked) [CBK107791] | 102.702% |
| O=C1c2ccccc2C(=O)N1Cc1nc2ccccc2c(=O)n1CCN1CCOCC1 [CBK268472] | 105.472% |
| OC(COCc1ccc(Cl)cc1)CN1CCN(C(c2ccccc2)c2ccccc2)CC1 (centres unmarked) [CBK074857C] | 122.115% |
| N#Cc1c2c(c3nncn3c1Nc1ccccc1)CCCC2 [CBK288197] | 111.249% |
| O=S(=O)(NCc1nc(-c2ccccc2)no1)c1ccc(F)cc1 [CBK268198] | 105.322% |
| O=C(O)c1cc(-c2cccc(O)c2)nc2ccc(Br)cc12 [CBK261777] | 100% |
| O=C(N1CCc2ccc(S(=O)(=O)Nc3ccc(-c4nnn[nH]4)cc3)cc2C1)C(F)(F)F [CBK155437] | 93.1657% |
